## Screening data, single-dose tests

Protein sequences, listed by entry. Tags and fused reporters are not part of them. Residues count along the entry.
UniProt P9WNZ1, whole entry: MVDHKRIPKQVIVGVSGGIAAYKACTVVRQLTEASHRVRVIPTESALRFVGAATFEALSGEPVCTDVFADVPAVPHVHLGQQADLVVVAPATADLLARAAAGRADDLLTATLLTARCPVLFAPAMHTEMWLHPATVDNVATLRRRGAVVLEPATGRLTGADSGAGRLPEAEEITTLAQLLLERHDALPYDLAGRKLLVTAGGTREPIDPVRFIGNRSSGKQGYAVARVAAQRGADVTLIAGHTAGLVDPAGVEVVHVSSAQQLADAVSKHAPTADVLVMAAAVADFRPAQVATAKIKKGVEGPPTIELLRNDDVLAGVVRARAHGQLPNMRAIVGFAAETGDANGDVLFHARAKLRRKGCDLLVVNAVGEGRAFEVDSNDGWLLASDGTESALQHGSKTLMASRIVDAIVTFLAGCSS
UniProt Q4DA54, 1-478: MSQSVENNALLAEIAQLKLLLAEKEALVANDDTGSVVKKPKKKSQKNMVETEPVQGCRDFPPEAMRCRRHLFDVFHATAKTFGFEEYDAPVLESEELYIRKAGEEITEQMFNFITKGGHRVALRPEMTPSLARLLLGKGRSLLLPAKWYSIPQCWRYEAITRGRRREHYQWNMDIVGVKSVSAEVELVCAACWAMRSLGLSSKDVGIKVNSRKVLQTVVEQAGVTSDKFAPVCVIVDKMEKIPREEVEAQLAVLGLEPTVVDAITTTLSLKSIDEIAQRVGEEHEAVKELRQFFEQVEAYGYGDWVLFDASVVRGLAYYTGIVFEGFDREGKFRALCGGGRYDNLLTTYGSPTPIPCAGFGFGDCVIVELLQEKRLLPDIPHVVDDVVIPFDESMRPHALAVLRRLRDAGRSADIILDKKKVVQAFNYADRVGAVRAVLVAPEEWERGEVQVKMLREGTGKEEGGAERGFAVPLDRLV

Source: ChEMBL document CHEMBL3988442, “University of Dundee, Small-Polar-MMV Screening Library” (2021).

CoaBC: 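Enzyme assay of CoaBC with a phosphate dye (Biomol Green) read at 650 nm. Target: Coenzyme A biosynthesis protein CoaBC, Mycobacterium tuberculosis (UniProt P9WNZ1). Compounds at 30 µM. Direction is inferred from only a few compounds that gave an IC50; most scored high, so higher reads as stronger inhibition. Most strong results did not repeat in a second test. Of about 67,000 compounds tested this way, about 40 (0.06%) reached 50% or more in at least one test.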
TcHisRS: 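Histidine-tRNA ligase, Trypanosoma cruzi CL Brener (UniProt Q4DA54). Enzyme assay of histidyl-tRNA synthetase; the read-out is not stated. Compounds at 30 µM. The record gives no direction; compounds that gave an IC50 in retests scored well above the rest, so higher reads as stronger inhibition. Size under these conditions: about 69,000 compounds, about 31 of them at 50% or above in at least one test.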

Each number is a percent effect as filed.
The record does not define 0% and 100%; most values in the screen are far below 50% and negative numbers occur (in some assays of this library far below -100).
This is an unselected part of the compounds tested.
A dash means the value is not listed here; it may have been measured.

| Compound | CoaBC | TcHisRS |
|---|---|---|
| `CC(CN1CCOCC1)NC(=O)c1cc(Cl)c2c(c1)OCCO2` (centres unmarked) | 0.1148 | 2.632 |
| `Cc1ccsc1C(Cc1ccccc1)NC(=O)CSCC(N)=O` (centres unmarked) | 5.976 | -1.053 |
| `CCn1ncc2[nH]c(-c3cc4c(cc3OC)OCO4)nc21` | 2.033 | -1.288 |
| `CC(C)CN1C[C@@H]2OCC(=O)N(Cc3nccn3C)[C@@H]2C1` | 9.934 | -2.174 |
| `CCC1(CC)C(=O)NC(=O)N=C1Nc1ccc(C)cc1` | 2.184 | 8.911 |
| `CCn1ncnc1C1CC(=O)NCc2nc(N3CCOCC3)sc21` (centres unmarked) | 5.897 | 9.453 |
| `Cc1ccc(CNC(CN2CCN(C)CC2)c2ccccc2)cc1C` (centres unmarked) | -1.527 | 7.229 |
| `CC(C)C(=O)N1CCCC1C(=O)Nc1ccc(F)c(F)c1` (centres unmarked) | -1.607 | 4.103 |
| `Cc1cc(C)c(N(CC(O)CNCc2ccccc2)S(C)(=O)=O)c(C)c1` (centres unmarked) | -1.937 | 15 |
| `CC(NCc1cnn(C)c1)c1noc(-c2ccc(Cl)cc2)n1` (centres unmarked) | -2.114 | 2.941 |
| `O=C(c1csc(-c2ncccn2)n1)N1CCN(C2CCCC2)CC1` | 1.621 | 6.061 |
| `Cc1ccc2c(n1)N(CC(C)C)CCN(C(=O)Cc1ccccn1)C2` | -0.6148 | 1.149 |
| `Cn1cnc2c(N3CCCC3)nc(C3CCNCC3)cc21` | 4.949 | -1.622 |
| `CSc1ccccc1CN1CCCn2nc(CNC(=O)N(C)C)cc2C1` | 2.345 | 0 |
| `O=C(CC1CC1)N1CCN(Cc2cccnc2)c2ncccc2C1` | -0.8631 | 1.905 |
| `Cn1ccc2c(C(=O)N3CCN(C(=O)C4CCCC4)CC3)cccc21` | 4.084 | -1 |
| `Cc1cnn(CCNCc2cc(C)no2)c1` | -0.609 | 6.548 |
| `c1csc(CN2CCOCC3(CCN(C4CCOCC4)C3)C2)c1` (centres unmarked) | 10.08 | 7.438 |
| `COc1ccccc1CN(CC1CCCO1)C(=O)c1cc(C)n[nH]1` (centres unmarked) | 0.2296 | -1.026 |
| `O=C(c1cnccn1)N1C[C@@H](OCc2cccnc2)[C@H]2OCCC[C@H]21` | 1.261 | 7.438 |
| `CC(=O)Nc1ccccc1Sc1nc(Br)nn1C` | 1.186 | -3 |
| `COc1ccc(CC(=O)N2CCC(c3nncn3C)CC2)cc1F` | 0.489 | 0 |
| `Cc1nc(CNC2(C(=O)OC(C)(C)C)CCCC2)oc1C` | 6.087 | 2.674 |
| `O=C(O)c1nnn(Cc2cccc(C(F)(F)F)c2)c1-c1ccccn1` | 5.353 | 6.818 |
| `CN(CCc1ccccn1)C(=O)C(c1cccnc1)N1CCOCC1` (centres unmarked) | -2.871 | 5.102 |
| `O=C(N[C@@H]1CN(Cc2ccc(F)c(F)c2)C[C@H]1O)c1cscn1` | 1.699 | 5.495 |
| `CN1CCCCC1c1ccc(-n2ccnc2)nc1` (centres unmarked) | 6.176 | 5.385 |
| `CSc1cccc(CN2CCC(CCC(=O)NCCN(C)C)CC2)c1` | -39.32 | 2.703 |
| `COC(=O)c1cc(NC(=O)NCC2CCS(=O)(=O)C2)ccc1Cl` (centres unmarked) | -0.5115 | 1.01 |
| `O=C(CCOc1ccccc1F)N1CCOCC1` | 8.657 | 6.468 |
| `COCCN(CCOC)C(=O)c1cnn(C)c1C` | -0.5964 | 3.704 |
| `COCCOc1ccc(NC(=O)C2CC(=O)N(C)C2)cn1` (centres unmarked) | -0.5141 | 3.759 |
| `CC(C)CN(CC(O)c1ccccc1)C(=O)Nc1nccs1` (centres unmarked) | 3.802 | 16 |
| `CN(C)S(=O)(=O)NCc1cccnc1Oc1ccc(F)cc1F` | -12.14 | 7.853 |
| `CC(=O)Nc1nc(SCc2ccc3c(c2)OCO3)ns1` | -3.398 | 2.682 |
| `O=C(c1ccccc1F)N1CCN(CCCn2cncn2)CC1` | 0.3654 | 0.5952 |
| `CCCc1nnc(NCCCn2nc(C)c(Cl)c2C)o1` | 11.04 | 4 |
| `COc1ccc(C(C(=O)O)N2CCC(O)(c3cccnc3)CC2)cc1F` (centres unmarked) | -3.672 | 1.02 |
| `CC(C)OCCSCc1nnc(-c2cccc(F)c2)o1` | - | 0 |
| `O=C(C1CCOCC1)N1CCO[C@H]2[C@H](OCc3ccncc3)CC[C@@H]21` | 3.008 | -1.22 |
| `O=C(C1CCC1)N1C[C@@H](c2ccsc2)[C@@H]2CN(C3CCCC3)CC[C@@H]21` | 11.66 | 1.128 |
| `COCC(=O)N1C[C@@H]2OCCN(Cc3c(C)noc3C)[C@@H]2C1` | 4.762 | 0.5464 |
| `Cc1ccc(C2(CN3CCN(Cc4cnc(C)n4C)CC3)CC2)cc1` | -27.97 | 3.383 |

2 of the entries, repeated:

Compound	CoaBC	TcHisRS
O=C(C1CCC1)N1C[C@@H](c2ccsc2)[C@@H]2CN(C3CCCC3)CC[C@@H]21	11.66	1.128
CSc1ccccc1CN1CCCn2nc(CNC(=O)N(C)C)cc2C1	2.345	0